Test results: paper PMC12989817

The chains behind the UniProt entries cited, without tags or fusion partners.
UniProt O00161: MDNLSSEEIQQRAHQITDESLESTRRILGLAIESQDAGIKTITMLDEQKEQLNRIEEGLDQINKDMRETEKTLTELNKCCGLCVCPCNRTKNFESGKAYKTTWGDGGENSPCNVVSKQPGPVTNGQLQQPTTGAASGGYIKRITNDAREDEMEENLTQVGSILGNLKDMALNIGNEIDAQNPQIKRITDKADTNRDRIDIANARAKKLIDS
UniProt Q86WV6: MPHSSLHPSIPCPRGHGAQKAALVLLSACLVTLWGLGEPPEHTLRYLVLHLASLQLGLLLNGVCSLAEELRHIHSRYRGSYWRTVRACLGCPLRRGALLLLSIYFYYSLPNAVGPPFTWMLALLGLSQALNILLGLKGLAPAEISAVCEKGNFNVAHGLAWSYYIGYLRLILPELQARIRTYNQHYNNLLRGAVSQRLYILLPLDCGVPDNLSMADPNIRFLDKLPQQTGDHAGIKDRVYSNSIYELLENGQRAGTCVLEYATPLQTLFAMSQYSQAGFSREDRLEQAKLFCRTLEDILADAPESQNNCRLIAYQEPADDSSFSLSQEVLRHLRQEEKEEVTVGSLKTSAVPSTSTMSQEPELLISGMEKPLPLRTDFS
UniProt O75410: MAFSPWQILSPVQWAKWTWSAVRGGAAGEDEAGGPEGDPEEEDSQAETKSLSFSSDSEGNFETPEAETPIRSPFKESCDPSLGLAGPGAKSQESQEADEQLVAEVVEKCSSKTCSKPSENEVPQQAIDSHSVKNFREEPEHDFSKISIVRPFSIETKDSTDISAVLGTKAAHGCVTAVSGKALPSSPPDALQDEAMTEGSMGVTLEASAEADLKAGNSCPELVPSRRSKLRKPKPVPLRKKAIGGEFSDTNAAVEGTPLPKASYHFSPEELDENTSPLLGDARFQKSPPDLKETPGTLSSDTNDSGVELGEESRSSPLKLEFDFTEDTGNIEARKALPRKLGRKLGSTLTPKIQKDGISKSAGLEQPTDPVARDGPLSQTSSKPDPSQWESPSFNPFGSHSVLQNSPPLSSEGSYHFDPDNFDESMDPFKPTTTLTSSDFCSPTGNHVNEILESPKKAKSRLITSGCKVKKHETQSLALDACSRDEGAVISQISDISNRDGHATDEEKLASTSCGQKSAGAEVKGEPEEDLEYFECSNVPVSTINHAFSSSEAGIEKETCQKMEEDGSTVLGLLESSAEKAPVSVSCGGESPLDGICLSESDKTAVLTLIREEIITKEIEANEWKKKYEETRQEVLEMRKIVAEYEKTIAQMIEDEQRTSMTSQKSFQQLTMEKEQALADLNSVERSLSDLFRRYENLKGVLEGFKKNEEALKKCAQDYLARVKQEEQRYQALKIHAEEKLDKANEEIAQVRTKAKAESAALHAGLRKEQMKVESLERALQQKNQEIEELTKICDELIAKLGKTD

B1: STXBP3 (protein, UniProt O00186 1-592)
chain: MAPPVAERGLKSVVWQKIKATVFDDCKKEGEWKIMLLDEFTTKLLASCCKMTDLLEEGITVVENIYKNREPVRQMKALYFITPTSKSVDCFLHDFASKSENKYKAAYIYFTDFCPDNLFNKIKASCSKSIRRCKEINISFIPHESQVYTLDVPDAFYYCYSPDPGNAKGKDAIMETMADQIVTVCATLDENPGVRYKSKPLDNASKLAQLVEKKLEDYYKIDEKSLIKGKTHSQLLIIDRGFDPVSTVLHELTFQAMAYDLLPIENDTYKYKTDGKEKEAILEEEDDLWVRIRHRHIAVVLEEIPKLMKEISSTKKATEGKTSLSALTQLMKKMPHFRKQITKQVVHLNLAEDCMNKFKLNIEKLCKTEQDLALGTDAEGQKVKDSMRVLLPVLLNKNHDNCDKIRAILLYIFSINGTTEENLDRLIQNVKIENESDMIRNWSYLGVPIVPQSQQGKPLRKDRSAEETFQLSRWTPFIKDIMEDAIDNRLDSKEWPYCSQCPAVWNGSGAVSARQKPRANYLEDRKNGSKLIVFVIGGITYSEVRCAYEVSQAHKSCEVIIGSTHVLTPKKLLDDIKMLNKPKDKVSLIKDE
B2: RGS14 (protein, UniProt O43566 1-566)
chain: MPGKPKHLGVPNGRMVLAVSDGELSSTTGPQGQGEGRGSSLSIHSLPSGPSSPFPTEEQPVASWALSFERLLQDPLGLAYFTEFLKKEFSAENVTFWKACERFQQIPASDTQQLAQEARNIYQEFLSSQALSPVNIDRQAWLGEEVLAEPRPDMFRAQQLQIFNLMKFDSYARFVKSPLYRECLLAEAEGRPLREPGSSRLGSPDATRKKPKLKPGKSLPLGVEELGQLPPVEGPGGRPLRKSFRRELGGTANAALRRESQGSLNSSASLDLGFLAFVSSKSESHRKSLGSTEGESESRPGKYCCVYLPDGTASLALARPGLTIRDMLAGICEKRGLSLPDIKVYLVGNEQALVLDQDCTVLADQEVRLENRITFELELTALERVVRISAKPTKRLQEALQPILEKHGLSPLEVVLHRPGEKQPLDLGKLVSSVAAQRLVLDTLPGVKISKARDKSPCRSQGCPPRTQDKATHPPPASPSSLVKVPSSATGKRQTCDIEGLVELLNRVQSSGAHDQRGLLRKEDLVLPEFLQLPAQGPSSEETPPQTKSAAQPIGGSLNSTTDSAL
B3: PRPF3 (protein, UniProt O43395 1-683)
chain: MALSKRELDELKPWIEKTVKRVLGFSEPTVVTAALNCVGKGMDKKKAADHLKPFLDDSTLRFVDKLFEAVEEGRSSRHSKSSSDRSRKRELKEVFGDDSEISKESSGVKKRRIPRFEEVEEEPEVIPGPPSESPGMLTKLQIKQMMEAATRQIEERKKQLSFISPPTPQPKTPSSSQPERLPIGNTIQPSQAATFMNDAIEKARKAAELQARIQAQLALKPGLIGNANMVGLANLHAMGIAPPKVELKDQTKPTPLILDEQGRTVDATGKEIELTHRMPTLKANIRAVKREQFKQQLKEKPSEDMESNTFFDPRVSIAPSQRQRRTFKFHDKGKFEKIAQRLRTKAQLEKLQAEISQAARKTGIHTSTRLALIAPKKELKEGDIPEIEWWDSYIIPNGFDLTEENPKREDYFGITNLVEHPAQLNPPVDNDTPVTLGVYLTKKEQKKLRRQTRREAQKELQEKVRLGLMPPPEPKVRISNLMRVLGTEAVQDPTKVEAHVRAQMAKRQKAHEEANAARKLTAEQRKVKKIKKLKEDISQGVHISVYRVRNLSNPAKKFKIEANAGQLYLTGVVVLHKDVNVVVVEGGPKAQKKFKRLMLHRIKWDEQTSNTKGDDDEESDEEAVKKTNKCVLVWEGTAKDRSFGEMKFKQCPTENMAREHFKKHGAEHYWDLALSESVLESTD
B4: MYO1G (protein, UniProt B0I1T2 1-1018)
chain: MEDEEGPEYGKPDFVLLDQVTMEDFMRNLQLRFEKGRIYTYIGEVLVSVNPYQELPLYGPEAIARYQGRELYERPPHLYAVANAAYKAMKHRSRDTCIVISGESGAGKTEASKHIMQYIAAVTNPSQRAEVERVKDVLLKSTCVLEAFGNARTNRNHNSSRFGKYMDINFDFKGDPIGGHIHSYLLEKSRVLKQHVGERNFHAFYQLLRGSEDKQLHELHLERNPAVYNFTHQGAGLNMTVHSALDSDEQSHQAVTEAMRVIGFSPEEVESVHRILAAILHLGNIEFVETEEGGLQKEGLAVAEEALVDHVAELTATPRDLVLRSLLARTVASGGRELIEKGHTAAEASYARDACAKAVYQRLFEWVVNRINSVMEPRGRDPRRDGKDTVIGVLDIYGFEVFPVNSFEQFCINYCNEKLQQLFIQLILKQEQEEYEREGITWQSVEYFNNATIVDLVERPHRGILAVLDEACSSAGTITDRIFLQTLDMHHRHHLHYTSRQLCPTDKTMEFGRDFRIKHYAGDVTYSVEGFIDKNRDFLFQDFKRLLYNSTDPTLRAMWPDGQQDITEVTKRPLTAGTLFKNSMVALVENLASKEPFYVRCIKPNEDKVAGKLDENHCRHQVAYLGLLENVRVRRAGFASRQPYSRFLLRYKMTCEYTWPNHLLGSDKAAVSALLEQHGLQGDVAFGHSKLFIRSPRTLVTLEQSRARLIPIIVLLLQKAWRGTLARWRCRRLRAIYTIMRWFRRHKVRAHLAELQRRFQAARQPPLYGRDLVWPLPPAVLQPFQDTCHALFCRWRARQLVKNIPPSDMPQIKAKVAAMGALQGLRQDWGCRRAWARDYLSSATDNPTASSLFAQRLKTLQDKDGFGAVLFSSHVRKVNRFHKIRNRALLLTDQHLYKLDPDRQYRVMRAVPLEAVTGLSVTSGGDQLVVLHARGQDDLVVCLHRSRPPLDNRVGELVGVLAAHCQGEGRTLEVRVSDCIPLSHRGVRRLISVEPRPEQPEPDFRCARGSFTLLWPSR
B5: FLOT1 (protein, UniProt O75955 1-427)
chain: MFFTCGPNEAMVVSGFCRSPPVMVAGGRVFVLPCIQQIQRISLNTLTLNVKSEKVYTRHGVPISVTGIAQVKIQGQNKEMLAAACQMFLGKTEAEIAHIALETLEGHQRAIMAHMTVEEIYKDRQKFSEQVFKVASSDLVNMGISVVSYTLKDIHDDQDYLHSLGKARTAQVQKDARIGEAEAKRDAGIREAKAKQEKVSAQYLSEIEMAKAQRDYELKKAAYDIEVNTRRAQADLAYQLQVAKTKQQIEEQRVQVQVVERAQQVAVQEQEIARREKELEARVRKPAEAERYKLERLAEAEKSQLIMQAEAEAASVRMRGEAEAFAIGARARAEAEQMAKKAEAFQLYQEAAQLDMLLEKLPQVAEEISGPLTSANKITLVSSGSGTMGAAKVTGEVLDILTRLPESVERLTGVSISQVNHKPLRTA
B6: TNPO2 (protein, UniProt O14787 1-897)
chain: MDWQPDEQGLQQVLQLLKDSQSPNTATQRIVQDKLKQLNQFPDFNNYLIFVLTRLKSEDEPTRSLSGLILKNNVKAHYQSFPPPVADFIKQECLNNIGDASSLIRATIGILITTIASKGELQMWPELLPQLCNLLNSEDYNTCEGAFGALQKICEDSSELLDSDALNRPLNIMIPKFLQFFKHCSPKIRSHAIACVNQFIMDRAQALMDNIDTFIEHLFALAVDDDPEVRKNVCRALVMLLEVRIDRLIPHMHSIIQYMLQRTQDHDENVALEACEFWLTLAEQPICKEVLASHLVQLIPILVNGMKYSEIDIILLKGDVEEDEAVPDSEQDIKPRFHKSRTVTLPHEAERPDGSEDAEDDDDDDALSDWNLRKCSAAALDVLANVFREELLPHLLPLLKGLLFHPEWVVKESGILVLGAIAEGCMQGMVPYLPELIPHLIQCLSDKKALVRSIACWTLSRYAHWVVSQPPDMHLKPLMTELLKRILDGNKRVQEAACSAFATLEEEACTELVPYLSYILDTLVFAFGKYQHKNLLILYDAIGTLADSVGHHLNQPEYIQKLMPPLIQKWNELKDEDKDLFPLLECLSSVATALQSGFLPYCEPVYQRCVTLVQKTLAQAMMYTQHPEQYEAPDKDFMIVALDLLSGLAEGLGGHVEQLVARSNIMTLLFQCMQDSMPEVRQSSFALLGDLTKACFIHVKPCIAEFMPILGTNLNPEFISVCNNATWAIGEICMQMGAEMQPYVQMVLNNLVEIINRPNTPKTLLENTGRLTSPSAIPAITIGRLGYVCPQEVAPMLQQFIRPWCTSLRNIRDNEEKDSAFRGICMMIGVNPGGVVQDFIFFCDAVASWVSPKDDLRDMFYKILHGFKDQVGEDNWQQFSEQFPPLLKERLAAFYGV
B7: AP3D1 (protein, UniProt O14617 1-1153)
chain: MALKMVKGSIDRMFDKNLQDLVRGIRNHKEDEAKYISQCIDEIKQELKQDNIAVKANAVCKLTYLQMLGYDISWAAFNIIEVMSASKFTFKRIGYLAASQSFHEGTDVIMLTTNQIRKDLSSPSQYDTGVALTGLSCFVTPDLARDLANDIMTLMSHTKPYIRKKAVLIMYKVFLKYPESLRPAFPRLKEKLEDPDPGVQSAAVNVICELARRNPKNYLSLAPLFFKLMTSSTNNWVLIKIIKLFGALTPLEPRLGKKLIEPLTNLIHSTSAMSLLYECVNTVIAVLISLSSGMPNHSASIQLCVQKLRILIEDSDQNLKYLGLLAMSKILKTHPKSVQSHKDLILQCLDDKDESIRLRALDLLYGMVSKKNLMEIVKKLMTHVDKAEGTTYRDELLTKIIDICSQSNYQYITNFEWYISILVELTRLEGTRHGHLIAAQMLDVAIRVKAIRKFAVSQMSALLDSAHLLASSTQRNGICEVLYAAAWICGEFSEHLQEPHHTLEAMLRPRVTTLPGHIQAVYVQNVVKLYASILQQKEQAGEAEGAQAVTQLMVDRLPQFVQSADLEVQERASCILQLVKHIQKLQAKDVPVAEEVSALFAGELNPVAPKAQKKVPVPEGLDLDAWINEPLSDSESEDERPRAVFHEEEQRRPKHRPSEADEEELARRREARKQEQANNPFYIKSSPSPQKRYQDTPGVEHIPVVQIDLSVPLKVPGLPMSDQYVKLEEERRHRQKLEKDKRRKKRKEKEKKGKRRHSSLPTESDEDIAPAQQVDIVTEEMPENALPSDEDDKDPNDPYRALDIDLDKPLADSEKLPIQKHRNTETSKSPEKDVPMVEKKSKKPKKKEKKHKEKERDKEKKKEKEKKKSPKPKKKKHRKEKEERTKGKKKSKKQPPGSEEAAGEPVQNGAPEEEQLPPESSYSLLAENSYVKMTCDIRGSLQEDSQVTVAIVLENRSSSILKGMELSVLDSLNARMARPQGSSVHDGVPVPFQLPPGVSNEAQYVFTIQSIVMAQKLKGTLSFIAKNDEGATHEKLDFRLHFSCSSYLITTPCYSDAFAKLLESGDLSMSSIKVDGIRMSFQNLLAKICFHHHFSVVERVDSCASMYSRSIQGHHVCLLVKKGENSVSVDGKCSDSTLLSNLLEEMKATLAKC

Target: N-terminal Kv1.3-TurboID (V5-TurboID-Kv1.3 fusion) (human) (UniProt P22001)
Experiment: proximity labelling; TurboID fused to Kv1.3, stably expressed in Jurkat T-cells; 200 μM biotin for 1 h; lysis in 8 M urea; biotinylated proteins enriched on streptavidin magnetic beads; label-free quantitative MS against untransduced Jurkat T-cells or between lines (>4-fold, p<0.05; n=3)

| binding | Molecule |
| --- | --- |
| binds | NPM1 (from UniProt P06748 1-294) |
| binds | RNMT (from UniProt O43148 1-476) |
| binds | SNAP23 (from UniProt O00161 1-211) |
| binds | SNX3 (from UniProt O60493 1-162) |
| binds | STING1 (from UniProt Q86WV6 1-379) |
| binds | TACC1 (from UniProt O75410 1-805) |
| binds | B1 |
| binds | B2 |
| binds | B3 |
| binds | B4 |
| binds | B5 |
| binds | B6 |
| binds | B7 |

No constants are given. Whether binding was seen depends on the method and setting. Binding seen in cells or lysates may run through a third protein. These calls come from enrichment with a bait or labelling near it, and not all partners need be listed.
